The list shows a part of the results. Repeats are few or missing, and single values can be far off.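 The apoptosis fraction was the count of cleaved-PARP antibody-stained nuclei relative to all DNA-stained nuclei, imaged in 1,536-well plates. Screening doses were set so most cells survived, and baseline and induced cleaved-PARP levels vary greatly across cell lines.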
Tests used:
Experiment in all cases: cleaved PARP positive nuclei fraction relative to DMSO control; melanoma cells; higher = more apoptosis
Conditions in all cases: library dose: low library concentration; 72 h
501Mel = system: 501Mel
A101D = system: A101D
A2058 = system: A2058
A375 = system: A375
C32 = system: C32
CBRC008 = system: CBRC008 (line from a melanoma biopsy)
CBRC013 = system: CBRC013 (line from a melanoma biopsy)
CBRC014 = system: CBRC014 (line from a melanoma biopsy)
CBRC016 = system: CBRC016 (line from a melanoma biopsy)
CBRC017 = system: CBRC017 (line from a melanoma biopsy)

Structure (SMILES)	cleaved PARP positive nuclei fraction (501Mel) [%]	cleaved PARP positive nuclei fraction (A101D) [%]	cleaved PARP positive nuclei fraction (A2058) [%]	cleaved PARP positive nuclei fraction (A375) [%]	cleaved PARP positive nuclei fraction (C32) [%]	cleaved PARP positive nuclei fraction (CBRC008) [%]	cleaved PARP positive nuclei fraction (CBRC013) [%]	cleaved PARP positive nuclei fraction (CBRC014) [%]	cleaved PARP positive nuclei fraction (CBRC016) [%]	cleaved PARP positive nuclei fraction (CBRC017) [%]
C[C@@H](N)c1ccc(C(=O)Nc2ccnc3[nH]ccc23)cc1 + Cc1cc(N2CCOCC2)cc2[nH]c(-c3c(NC[C@@H](O)c4cccc(Cl)c4)cc[nH]c3=O)nc12 [BMS536924] (first compound 0.4 µM, partner dose 0.2 µM)	81	226	48.7	67.5	75.6	235	97.4	85	158	162
Cn1cnc2c(F)c(Nc3ccc(Br)cc3Cl)c(C(=O)NOCCO)cc21 [selumetinib] + COc1cc(Nc2ncc(F)c(Nc3ccc4c(n3)NC(=O)C(C)(C)O4)n2)cc(OC)c1OC [Tamatinib] (first compound 0.015 µM, partner dose 0.4 µM)	193	23.5	203	120	20.6	362	163	90.6	57.3	141
C[C@@H](N)c1ccc(C(=O)Nc2ccnc3[nH]ccc23)cc1 + O=C(Nc1cccc(Cl)c1)Nc1ncc(CCNc2ncnc3ccsc23)s1 [SNS314] (first compound 0.4 µM, partner dose 0.0008 µM)	294	47.5	164	171	266	105	99.7	125	98.1	122
Cn1sc(=O)n(Cc2ccccc2)c1=O + Cn1cncc1[C@@](N)(c1ccc(Cl)cc1)c1ccc2c(c1)c(-c1cccc(Cl)c1)cc(=O)n2C [tipifarnib] (first compound 0.4 µM, partner dose 0.01 µM)	265	59.6	66	217	83.6	127	145	97.3	72.9	64.3
NC(=O)c1ccc(N(C(N)=O)c2c(F)cccc2F)nc1-c1ccc(F)cc1F + CC(C)(C)c1cnc(CSc2cnc(NC(=O)C3CCNCC3)s2)o1 [SNS-032] (first compound 0.4 µM, partner dose 0.01 µM)	58.8	91.9	121	220	18.7	163	174	77.3	93.1	200
CN(c1ncccc1CNc1nc(Nc2ccc3c(c2)CC(=O)N3)ncc1C(F)(F)F)S(C)(=O)=O + CC(C)(C)c1cnc(CSc2cnc(NC(=O)C3CCNCC3)s2)o1 [SNS-032] (first compound 0.08 µM, partner dose 0.01 µM)	254	167	212	30.3	122	81.9	121	87.9	90.1	117
COc1ccc(C2=N[C@@H](c3ccc(Cl)cc3)[C@@H](c3ccc(Cl)cc3)N2C(=O)N2CCNC(=O)C2)c(OC(C)C)c1 [Nutlin-3] + CO[C@@H]1[C@H](N(C)C(=O)c2ccccc2)C[C@H]2O[C@]1(C)n1c3ccccc3c3c4c(c5c6ccccc6n2c5c31)C(=O)NC4 [Midostaurin] (first compound 0.1 µM, partner dose 0.08 µM)	94.6	49.9	211	520	90.7	66.2	101	105	123	130
CC(=O)O[C@@]12CO[C@@H]1C[C@H](O)[C@@]1(C)C(=O)[C@H](O)C3=C(C)[C@@H](OC(=O)[C@H](O)[C@@H](NC(=O)OC(C)(C)C)c4ccccc4)C[C@@](O)([C@@H](OC(=O)c4ccccc4)[C@H]21)C3(C)C [Docetaxel] + C=CCn1c(=O)c2cnc(Nc3ccc(N4CCN(C)CC4)cc3)nc2n1-c1cccc(C(C)(C)O)n1 [MK1775] (first compound 0.0001 µM, partner dose 0.02 µM)	384	125	8180	5360	438	534	67.4	134	365	155
C[C@@H](N)c1ccc(C(=O)Nc2ccnc3[nH]ccc23)cc1 + C[C@@H]1CCN(C(=O)CC#N)C[C@@H]1N(C)c1ncnc2[nH]ccc12 [CP690550] (first compound 0.4 µM, partner dose 1 µM)	153	166	98.2	138	82.3	60	124	82.8	116	167
C[C@@H](N)c1ccc(C(=O)Nc2ccnc3[nH]ccc23)cc1 + COc1cc2c(Oc3ccc4[nH]c(C)cc4c3F)ncnc2cc1OCCCN1CCCC1 [cediranib] (first compound 0.4 µM, partner dose 0.4 µM)	38.7	150	76.9	104	108	70.5	153	88.5	108	71.9

— the supplement of paper PMC4604168 (melanoma cell lines)
